Laboratory results reported in patent publication US10450346B2, “Immunotherapy against several tumors of the blood, in particular chronic lymphoid leukemia (CLL)” (Immatics biotechnologies GmbH, priority 2014, dated 2019).

Test system: primary CLL samples (PBMC from CLL patients), HLA class I ligands
Assay: HLA class I ligandome analysis by LC-MS/MS (frequency of HLA restricted presentation)
Set-up: species or system human
Settings: CLL patient HLA class I ligandomes (n = 30)

Substance	Number of positive CLLs
1 (AEHPNVTLTI; listed as Homo sapiens) [compound 1]	1
2 (FLAEHPNVTL; listed as Homo sapiens) [compound 2]	8
3 (ILYGRSYTW; listed as Homo sapiens) [compound 3]	1
4 (EVAEFLARH; listed as Homo sapiens) [compound 4]	2
5 (RHSNVNLTI; listed as Homo sapiens) [compound 5]	1
6 (HPDNVKLFL; listed as Homo sapiens) [compound 6]	1
7 (ISDTGELKL; listed as Homo sapiens) [compound 7]	1
8 (KVNGKLVALK; listed as Homo sapiens) [compound 8]	1
9 (NRLSAQAAL; listed as Homo sapiens) [compound 9]	1
10 (TPFTAIREA; listed as Homo sapiens) [compound 10]	1
11 (FGLARAKSV; listed as Homo sapiens) [compound 11]	6
12 (KIADFGLAR; listed as Homo sapiens) [compound 12]	1
14 (GRFKNLREAL; listed as Homo sapiens) [compound 14]	1
15 (MSPFSKATL; listed as Homo sapiens) [compound 15]	2
16 (QEDPGDNQITL; listed as Homo sapiens) [compound 16]	1
17 (SPFSKATL; listed as Homo sapiens) [compound 17]	2
18 (DALLKRTM; listed as Homo sapiens) [compound 18]	1
19 (GEDVRSALL; listed as Homo sapiens) [compound 19]	3
20 (KFAEEFYSF; listed as Homo sapiens) [compound 20]	2
21 (YGYDNVKEY; listed as Homo sapiens) [compound 21]	7
22 (LEVEERTKPV; listed as Homo sapiens) [compound 22]	1
23 (RDSPINANLRY; listed as Homo sapiens) [compound 23]	1
24 (RPFVIVTA; listed as Homo sapiens) [compound 24]	1

Substance	Number of positive CLLs
25 (RPIINTPMV; listed as Homo sapiens) [compound 25]	1
26 (SPTSSRTSSL; listed as Homo sapiens) [compound 26]	7
27 (ATSAPLVSR; listed as Homo sapiens) [compound 27]	1
28 (AELRSTASLL; listed as Homo sapiens) [compound 28]	1
29 (APASSHERASM; listed as Homo sapiens) [compound 29]	2
30 (ASRQAPPHI; listed as Homo sapiens) [compound 30]	1
31 (AVKKNPGIAA; listed as Homo sapiens) [compound 31]	2
32 (EEHLESHKKY; listed as Homo sapiens) [compound 32]	2
33 (GEFTSARAV; listed as Homo sapiens) [compound 33]	1
34 (GQSTPRLFSI; listed as Homo sapiens) [compound 34]	1
35 (LVDDPLEY; listed as Homo sapiens) [compound 35]	1
36 (RPKNLMQTL; listed as Homo sapiens) [compound 36]	3
37 (RQAPPHIEL; listed as Homo sapiens) [compound 37]	2
38 (SEAAELRSTA; listed as Homo sapiens) [compound 38]	1
39 (AAVRIGSVL; listed as Homo sapiens) [compound 39]	2
40 (ERAGVVREL; listed as Homo sapiens) [compound 40]	1
41 (GAAVRIGSVL; listed as Homo sapiens) [compound 41]	1
42 (KLYELHVFTF; listed as Homo sapiens) [compound 42]	1
43 (LYELHVFTF; listed as Homo sapiens) [compound 43]	2
45 (DELPKFHQY; listed as Homo sapiens) [compound 45]	2
46 (DVTGQFPSSF; listed as Homo sapiens) [compound 46]	1
47 (EHSRVLQQL; listed as Homo sapiens) [compound 47]	2
48 (IKVSKQLL; listed as Homo sapiens) [compound 48]	1

Substance	Number of positive CLLs
49 (KPRQSSPQL; listed as Homo sapiens) [compound 49]	3
50 (KQLLAALEI; listed as Homo sapiens) [compound 50]	1
51 (RRKDLVLKY; listed as Homo sapiens) [compound 51]	2
52 (RTRDYASLPPK; listed as Homo sapiens) [compound 52]	1
53 (APGSVLPRAL; listed as Homo sapiens) [compound 53]	3
54 (DIKEHPLL; listed as Homo sapiens) [compound 54]	1
55 (DSAGPQDAR; listed as Homo sapiens) [compound 55]	1
56 (FQYAKESYI; listed as Homo sapiens) [compound 56]	1
57 (KVLSWPFLM; listed as Homo sapiens) [compound 57]	1
58 (LENDQSLSF; listed as Homo sapiens) [compound 58]	1
59 (SPSRQPQV; listed as Homo sapiens) [compound 59]	1
60 (SRHQSFTTK; listed as Homo sapiens) [compound 60]	3
61 (SSHNASKTL; listed as Homo sapiens) [compound 61]	2
62 (EEIDTTMRW; listed as Homo sapiens) [compound 62]	1
64 (LPQEPRTSL; listed as Homo sapiens) [compound 64]	2
65 (LTYKLPVA; listed as Homo sapiens) [compound 65]	1
66 (NEMELAHSSF; listed as Homo sapiens) [compound 66]	2
67 (REFPEANFEL; listed as Homo sapiens) [compound 67]	1
68 (THHIPDAKL; listed as Homo sapiens) [compound 68]	1
69 (TVKENLSLF; listed as Homo sapiens) [compound 69]	1
70 (VLLKKAVL; listed as Homo sapiens) [compound 70]	1
71 (HLKSIPVSL; listed as Homo sapiens) [compound 71]	2
72 (KVWYNVENW; listed as Homo sapiens) [compound 72]	1

Substance	Number of positive CLLs
73 (LPAYRAQLL; listed as Homo sapiens) [compound 73]	1
74 (LSEQTSVPL; listed as Homo sapiens) [compound 74]	1
75 (SLNQWLVSF; listed as Homo sapiens) [compound 75]	1
76 (SMTSLAQKI; listed as Homo sapiens) [compound 76]	1
77 (SSSGLHPPK; listed as Homo sapiens) [compound 77]	2
79 (FYTVIPHNF; listed as Homo sapiens) [compound 79]	3
80 (HHINTDNPSL; listed as Homo sapiens) [compound 80]	2
81 (RVGEVGQSK; listed as Homo sapiens) [compound 81]	2
82 (AVFDGAQVTSK; listed as Homo sapiens) [compound 82]	7
83 (SQTDLVSRL; listed as Homo sapiens) [compound 83]	1
84 (VPVPHTTAL; listed as Homo sapiens) [compound 84]	7
85 (YQVLDVQRY; listed as Homo sapiens) [compound 85]	1
86 (APFQGDQRSL; listed as Homo sapiens) [compound 86]	2
87 (DVAEPYKVY; listed as Homo sapiens) [compound 87]	1
88 (IVSGQPGTQK; listed as Homo sapiens) [compound 88]	3
89 (TPEQQAAIL; listed as Homo sapiens) [compound 89]	1
90 (VELFRTAYF; listed as Homo sapiens) [compound 90]	1
91 (EHADDDPSL; listed as Homo sapiens) [compound 91]	1
92 (SEESVKSTTL; listed as Homo sapiens) [compound 92]	2
93 (SPRPPLGSSL; listed as Homo sapiens) [compound 93]	4
94 (SPWWRSSL; listed as Homo sapiens) [compound 94]	1
95 (VYTPVDSLVF; listed as Homo sapiens) [compound 95]	1
